Drawing on publication PMC3517537, this text covers binding for 1 molecule.

No constants are given. Whether binding was seen depends on the method and setting. In cells and extracts the contact can be indirect. A result given as binding can be weak or reduced; the word gives no strength.

For the assay, the target named is taxol-stabilized microtubules (Cytoskeleton Inc). Description: co-sedimentation; 10 µl 35S-labeled in vitro translated protein with 50 µg Taxol-stabilized microtubules or Taxol-containing buffer, 100 µl, 30 min 37°C; 30 min at 100,000 g; supernatant and pellet by autoradiography; only the target purified.

B1: in vitro translated 35S-labeled GTSE1 WT (protein, UniProt Q9NYZ3 1-739)
chain: MEGGGGRDEPSACRAGDVNMDDPKKEDILLLADEKFDFDLSLSSSSANEDDEVFFGPFGHKERCIAASLELNNPVPEQPPLPTSESPFAWSPLAGEKFVEVYKEAHLLALHIESSSRNQAAQAAKPEDPRSQGVERFIQESKLKINLFEKEKEMKKSPTSLKRETYYLSDSPLLGPPVGEPRLLASSPALPSSGAQARLTRAPGPPHSAHALPRESCTAHAASQAATQRKPGTKLLLPRAASVRGRSIPGAAEKPKKEIPASPSRTKIPAEKESHRDVLPDKPAPGAVNVPAAGSHLGQGKRAIPVPNKLGLKKTLLKAPGSTSNLARKSSSGPVWSGASSACTSPAVGKAKSSEFASIPANSSRPLSNISKSGRMGPAMLRPALPAGPVGASSWQAKRVDVSELAAEQLTAPPSASPTQPQTPEGGGQWLNSSCAWSESSQLNKTRSIRRRDSCLNSKTKVMPTPTNQFKIPKFSIGDSPDSSTPKLSRAQRPQSCTSVGRVTVHSTPVRRSSGPAPQSLLSAWRVSALPTPASRRCSGLPPMTPKTMPRAVGSPLCVPARRRSSEPRKNSAMRTEPTRESNRKTDSRLVDVSPDRGSPPSRVPQALNFSPEESDSTFSKSTATEVAREEAKPGGDAAPSEALLVDIKLEPLAVTPDAASQPLIDLPLIDFCDTPEAHVAVGSESRPLIDLMTNTPDMNKNVAKPSPVVGQLIDLSSPLIQLSPEADKENVDSPLLKF
modifications: 35S-labeled
Take B1: the binding entry was “binds”.
